Among all 320,000 compounds or so, about 22,000 (6.9%) were called active. Inconclusive means that the source gave no clear call. Such entries were picked first, then a sample of the others. The call rests on the fitted dose curve; in most records, active means well fitted inhibition curve with a large enough effect; inconclusive means small, poorly fitted or top-dose-only effect, or another doubt; inactive means no such curve, though single readings can be large or run the other way. Potencies beside an inconclusive call are fits to weak or partial responses and may not hold up.
experiment: Primary qHTS for delayed death inhibitors of the malarial parasite plastid, 96 hour incubation; conditions: P. falciparum luciferase reporter growth; series mostly up to 28.7 µM
Summary of the method: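 Two-generation exposure (96 h) targets delayed-death phenotype. Reporter parasites carrying integrated firefly luciferase, in red cells at 2% hematocrit and 0.05% parasitemia final, kept at 37 C, 5% CO2; luminescence loss indicates inhibition.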
Potency means the concentration at half of the fitted maximal effect.

SMILES	Potency
COCCNC(=S)N1CCC(C(=O)c2ccc(C)cc2)CC1	inactive
CCCS(=O)(=O)N1CCc2cc(OC)c(OC)cc2C1	inactive
CCOC(=O)c1cc(C(C)(C)C)oc1CNC(=O)c1c(C)oc2c1CCCC2	inconclusive: 5.86 µM [inhibitor, partial curve, poor fit]
CCCCc1ccc(NC(=O)OC)cc1	inactive
O=C(CN1CCN(Cc2ccc(Cl)cc2)CC1)N1CCc2ccccc21	inconclusive: 10.4 µM [inhibitor, single point]
CC(=O)Cn1cnc2scc(-c3ccc(C)c(C)c3)c2c1=O	inconclusive: 18.5 µM [inhibitor, single point]
O=c1/c(=C/c2ccc(O)c([N+](=O)[O-])c2)sc2nc3ccccc3n12	inconclusive: 0.37 µM [inhibitor, full curve, poor fit]
CN1CCN(c2cc([N+](=O)[O-])ccc2Cl)CC1	inactive
O=S(=O)(c1ccccc1)n1ccc2ccccc21	inconclusive: 18.5 µM [inhibitor, single point]
CCOC(=O)CSc1nc2cc(C(=O)NCc3ccco3)ccc2c(=O)n1C1CCCCC1	inactive
O=C(C1CC1)N1CCc2cc(Br)cc(S(=O)(=O)N3CCOCC3)c21	inactive
Cc1cc(C)nc(N2CCN(C(=O)c3ccc(S(=O)(=O)N4CCCCCC4)cc3)CC2)n1	inactive
Cc1cc(O)ccc1NC(=O)c1ccccc1	inconclusive: 9.28 µM [inhibitor, partial curve, poor fit]
O=C(CN1CCCCC1)Nc1ccccc1Oc1ccccc1	inconclusive: 16.5 µM [inhibitor, single point]
CC1C(=O)CCN(C(C)(C)C)C1C (stereo not given)	active: 8.28 µM
OC(CNCC1CCCCC1)COc1ccccc1 (stereo not given)	inconclusive: 10.4 µM [inhibitor, single point]
Cc1oc(-c2cccc(Cl)c2)nc1CN1CCC(C(=O)NC2CC2)CC1	inactive
COC(=O)c1cc(-c2cccc(OC)c2)n[nH]1	inactive
C[N+]1(CC2COC(c3ccccc3)(C3CCCCC3)O2)CCCCC1 (stereo not given)	active: 5.86 µM
O=C(Nc1ccc(-n2cnnn2)cc1)C1CCC1	inconclusive: 18.5 µM [inhibitor, single point]
Cc1cc(C(=O)OCC(=O)NCc2ccc(Cl)cc2)c(C)o1	inactive
CCc1nc2ccccc2n1CC(=O)N(C(C)CC)C1CCS(=O)(=O)C1 (stereo not given)	inconclusive: 0.165 µM [inhibitor, full curve]
CN1CCN(c2ccc(NC(=S)NC(=O)c3cccc4c(Cl)cccc34)cc2)CC1	inconclusive: 18.5 µM [inhibitor, single point]
CCC(C)c1ccc(NC(=S)NN2CCOCC2)cc1 (stereo not given)	inconclusive: 13.1 µM [inhibitor, single point]

In the list so far, 2 have a tert-butyl group:
SMILES	Potency
CCOC(=O)c1cc(C(C)(C)C)oc1CNC(=O)c1c(C)oc2c1CCCC2	inconclusive: 5.86 µM [inhibitor, partial curve, poor fit]
CC1C(=O)CCN(C(C)(C)C)C1C (stereo not given)	active: 8.28 µM

(continued)

SMILES	Potency
CCC(CC)c1nnc(NC(=O)c2cc([N+](=O)[O-])ccc2N2CCCCC2)s1	inconclusive: 9.28 µM [inhibitor, single point]
CCC1CCCCN1CCCNC(=O)CN1C(=O)COc2ccc(S(=O)(=O)N3CCOCC3)cc21 (stereo not given)	inconclusive: 0.522 µM [inhibitor, full curve]
COC(=O)c1cc(-c2ccc(OC)c(OC)c2)c2c(=O)[nH]c(=O)n(C)c2n1	inactive
O=S(=O)(NCC(c1cccnc1)N1CCN(c2ccccc2)CC1)c1cc(F)ccc1F (stereo not given)	inactive
O=C(NCCc1ccccc1)c1ccc2c(c1)OCO2	inconclusive: 13.1 µM [inhibitor, partial curve]
COc1ccc(-c2[nH]ncc2-c2csc(C)n2)c(O)c1	inconclusive: 18.5 µM [inhibitor, single point]
Cc1cccc(C(=O)N[C@H](C(=O)Nc2nc3ccc(S(C)(=O)=O)cc3s2)C(C)C)c1	inconclusive: 1.47 µM [inhibitor, full curve]
O=S(=O)(Nc1nc2ccccc2s1)c1ccc(Br)s1	inactive
O=C(Nc1ccc(Cl)cc1)Nc1ccc(N2CCOCC2)cc1	inactive
Cc1cccc(-c2nc3c(c(=O)c4ccccc4n3C)c(=O)n2-c2ccccc2)c1	active: 1.65 µM
COc1ccc(C2=NN(CCC(=O)NC3CCCCCC3)C(=O)CC2)cc1	inconclusive: 4.15 µM [inhibitor, partial curve, poor fit]
CC(C)(C)c1ccc(S(=O)(=O)N2CCN(C(=O)C3CCC3)CC2)cc1	inconclusive: 14.7 µM [inhibitor, partial curve, poor fit]
O=Cc1c(-c2ccccc2)cc2oc3ccccc3cc1-2	inactive
OCCNc1nc(SCc2ccccc2)nc2sc3c(c12)CCC3	inconclusive: 10.4 µM [inhibitor, single point]
O=C(CNc1cccc(S(=O)(=O)N2CCCCCC2)c1)Nc1cccc([N+](=O)[O-])c1	inconclusive: 18.5 µM [inhibitor, single point]
COc1ccccc1-c1cc(C(F)(F)F)nc(S(C)(=O)=O)n1	inconclusive: 4.15 µM [inhibitor, partial curve, poor fit]
COc1ccc(C2CC(c3ccccc3)=NN2c2ccc(S(N)(=O)=O)cc2)cc1OC (stereo not given)	inconclusive: 0.329 µM [inhibitor, full curve, poor fit]
O=C(c1cc(-c2ccc(Cl)c(Cl)c2)on1)N1CCCCC1	inconclusive: 10.4 µM [inhibitor, single point]
O=C1NCN(c2ccccc2)C12CCN(CCCOc1ccc(F)cc1)CC2	inactive
O=C(O/N=C1\CCS(=O)(=O)c2sccc21)c1ccc(F)cc1	inactive
CCOc1ccc2nc(NC(=O)C3CCN(C(=O)c4ccco4)CC3)sc2c1	inactive
COC(=O)C1=C(CS(=O)(=O)c2ccc(OC)cc2)NC(=O)NC1c1ccccc1 (stereo not given)	inconclusive: 0.828 µM [inhibitor, partial curve, poor fit]
CCN(CC(=O)Nc1ccc(NC(C)=O)cc1)c1ccc(C(F)(F)F)cn1	inconclusive: 18.5 µM [inhibitor, single point]
O=C1CCC(c2ccccc2)=NN1	inconclusive: 18.5 µM [inhibitor, single point]

SMILES	Potency
O=C(c1ccccc1)c1ccc2nc(-c3ccc(NC(=O)c4ccccc4Br)cc3)[nH]c2c1	inconclusive: 0.37 µM [inhibitor, full curve, poor fit]
CC(=O)c1cccc(NC(=O)COC(=O)c2ccc(S(C)(=O)=O)c([N+](=O)[O-])c2)c1	inconclusive: 1.47 µM [inhibitor, full curve, poor fit]
COC(=O)CCCC1=CC2=C(c3ccccc3)C(=O)C(C)(OC(=O)C3CCCC3)C(=O)C2=CN1C1CC1 (stereo not given)	inconclusive: 18.5 µM [inhibitor, single point]
Cc1cccc(NC(=O)C2CCN(S(=O)(=O)c3c(C)nn(C)c3C)CC2)n1	inconclusive: 18.5 µM [inhibitor, single point]
CCSC1=C(C#N)C(c2ccc3c(c2)OCO3)C2=C(CCCC2=O)N1 (stereo not given)	inconclusive: 13.1 µM [inhibitor, single point]
COc1ccc(C(=O)NCCNC(=O)c2ccc(C)nc2)cc1	inconclusive: 3.7 µM [inhibitor, partial curve]
COc1cccc(CNC(=O)CN2C(=O)NC(Cc3ccccc3)(c3ccccc3)C2=O)c1 (stereo not given)	inconclusive: 14.7 µM [inhibitor, single point]
Cn1c(CN2CCOCC2)nnc1SCC(=O)Nc1ccc([N+](=O)[O-])cc1O	inconclusive: 13.1 µM [inhibitor, single point]
CCOc1ccc(Br)cc1S(=O)(=O)Nc1ccc(NC(=O)c2ccccc2C)cc1	inconclusive: 11.7 µM [inhibitor, single point]
COc1ccc(OC)c(/C=N/NC(=O)CNC(=O)c2ccc(S(=O)(=O)N3CCOCC3)cc2)c1	inactive
CC(=O)Nc1ccc(S(=O)(=O)N2CCN=C2SCc2cccc(C)c2)cc1	inconclusive: 5.86 µM [inhibitor, single point]
COc1ccc(Nc2nnc(SCC3CCCO3)s2)cc1 (stereo not given)	inconclusive: 14.7 µM [inhibitor, single point]
O=Cc1ccc(N2Cc3ccccc3C2)cc1	inconclusive: 13.1 µM [inhibitor, partial curve]
O=C(C(=O)N1CCN(c2ccc([N+](=O)[O-])cc2)CC1)c1cn(CC(=O)N2CCOCC2)c2ccccc12	inconclusive: 18.5 µM [inhibitor, single point]
COC(=O)c1c(C)[nH]c(C)c1-c1ccccc1Cl	inactive
Cc1ccccc1C(=O)Nc1ccc2c(c1)CCCN2C(=O)c1cccs1	inconclusive: 18.5 µM [inhibitor, single point]
Cc1ccc(C2(O)CN(c3ccccc3C)C3=[N+]2CCS3)cc1 (stereo not given)	inactive
CC(OC(=O)c1cccc([N+](=O)[O-])c1)C(=O)N1CCc2ccccc21 (stereo not given)	inconclusive: 18.5 µM [inhibitor, single point]
COC(=O)c1ccccc1NC(=O)CSc1nncn1-c1ccccn1	inactive
COc1ccc2c(C)nc(N/C(N)=N/S(=O)(=O)c3ccc(C)cc3)nc2c1	inconclusive: 4.15 µM [inhibitor, partial curve, poor fit]
CN1CCN(c2ccc(S(C)(=O)=O)cc2[N+](=O)[O-])CC1	active: 11.7 µM
O=C(Nc1nc(-c2ccccc2)cs1)c1cccc(S(=O)(=O)N2CCN(Cc3ccccc3)CC2)c1	inconclusive: 18.5 µM [inhibitor, single point]

Filtered by structure, the entries above containing a CF3 group (2)
SMILES	Potency
COc1ccccc1-c1cc(C(F)(F)F)nc(S(C)(=O)=O)n1	inconclusive: 4.15 µM [inhibitor, partial curve, poor fit]
CCN(CC(=O)Nc1ccc(NC(C)=O)cc1)c1ccc(C(F)(F)F)cn1	inconclusive: 18.5 µM [inhibitor, single point]

— PubChem BioAssay AID504834 (National Center for Advancing Translational Sciences (NCATS), 2011)
